For this data set, the target named is T1, TRB1 (UniProt Q8VWK4).
T1 sequence (looked up, limits assumed): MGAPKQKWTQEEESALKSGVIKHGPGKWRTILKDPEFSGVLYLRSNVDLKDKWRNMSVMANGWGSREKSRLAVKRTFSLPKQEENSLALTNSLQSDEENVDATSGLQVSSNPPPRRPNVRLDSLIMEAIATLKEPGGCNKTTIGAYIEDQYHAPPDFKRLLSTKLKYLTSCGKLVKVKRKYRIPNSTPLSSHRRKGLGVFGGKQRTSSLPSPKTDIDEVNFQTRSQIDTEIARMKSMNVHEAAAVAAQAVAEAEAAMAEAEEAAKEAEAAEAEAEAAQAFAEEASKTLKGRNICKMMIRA
The experiment in a line: EMSA. Conditions: non-telomeric competitor 1-100x; 10 mM Tris-HCl pH 8.0, 1 mM EDTA, 1 mM DTT, 50 mM NaCl, 5% glycerol; 10 pmol protein, 1 pmol probe, on ice 20 min; 7.5% PAGE, 0.5x TBE, 15 C; recombinant protein; protein details: His-tag (pHGWA); label: 32P 5'-end. For orientation: In EMSA bound probe runs differently from free probe, usually more slowly.

Construct, isoform or probe ends are uncertain for at least one entry. At least one verdict was read from the data and is not stated in words by the source. Tags and fusion partners may be left off the protein sequences shown.

In the case of “TTTTTCACGAAAACCCTAATCGCAGTCG (double strand) [telo-box]”, the binding result is “binds”.

These data come from paper PMC10167121, “Completing the TRB family: newly characterized members show ancient evolutionary origins and distinct localization, yet similar interactions”.
